Data taken from PMC12516561 (2025).
Results are given in words; binding and its absence hold for the method and conditions named. In cells and extracts the contact can be indirect. A yes stands for co-enrichment or nearness to the bait. Other partners may have been found. Where a sequence is shown, tags or fusion partners need not be part of it.

By UniProt entry, the sequences of proteins in these tests, tags left out.
UniProt P51812: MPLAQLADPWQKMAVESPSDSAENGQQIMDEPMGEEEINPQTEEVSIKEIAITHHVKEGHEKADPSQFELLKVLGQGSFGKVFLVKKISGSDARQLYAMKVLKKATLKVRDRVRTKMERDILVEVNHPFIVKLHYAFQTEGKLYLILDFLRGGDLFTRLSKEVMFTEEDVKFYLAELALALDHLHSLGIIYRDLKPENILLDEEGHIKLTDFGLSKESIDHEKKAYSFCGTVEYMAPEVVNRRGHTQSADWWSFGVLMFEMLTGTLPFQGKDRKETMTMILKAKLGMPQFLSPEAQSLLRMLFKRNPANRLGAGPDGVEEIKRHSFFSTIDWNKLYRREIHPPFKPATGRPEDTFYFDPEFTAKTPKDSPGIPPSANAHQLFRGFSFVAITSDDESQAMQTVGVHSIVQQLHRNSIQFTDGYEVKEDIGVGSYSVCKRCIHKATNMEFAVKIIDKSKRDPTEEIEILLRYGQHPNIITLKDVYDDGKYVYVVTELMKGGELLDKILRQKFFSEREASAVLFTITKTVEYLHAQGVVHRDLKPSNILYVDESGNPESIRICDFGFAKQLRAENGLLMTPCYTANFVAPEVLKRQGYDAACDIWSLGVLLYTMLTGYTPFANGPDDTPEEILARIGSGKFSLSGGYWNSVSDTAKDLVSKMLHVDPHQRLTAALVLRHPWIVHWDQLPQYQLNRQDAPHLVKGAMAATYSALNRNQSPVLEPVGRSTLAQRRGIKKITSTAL

Biological target: T1, iRhom2 wild type (HA-tagged) (human) (UniProt Q6PJF5)
T1 sequence: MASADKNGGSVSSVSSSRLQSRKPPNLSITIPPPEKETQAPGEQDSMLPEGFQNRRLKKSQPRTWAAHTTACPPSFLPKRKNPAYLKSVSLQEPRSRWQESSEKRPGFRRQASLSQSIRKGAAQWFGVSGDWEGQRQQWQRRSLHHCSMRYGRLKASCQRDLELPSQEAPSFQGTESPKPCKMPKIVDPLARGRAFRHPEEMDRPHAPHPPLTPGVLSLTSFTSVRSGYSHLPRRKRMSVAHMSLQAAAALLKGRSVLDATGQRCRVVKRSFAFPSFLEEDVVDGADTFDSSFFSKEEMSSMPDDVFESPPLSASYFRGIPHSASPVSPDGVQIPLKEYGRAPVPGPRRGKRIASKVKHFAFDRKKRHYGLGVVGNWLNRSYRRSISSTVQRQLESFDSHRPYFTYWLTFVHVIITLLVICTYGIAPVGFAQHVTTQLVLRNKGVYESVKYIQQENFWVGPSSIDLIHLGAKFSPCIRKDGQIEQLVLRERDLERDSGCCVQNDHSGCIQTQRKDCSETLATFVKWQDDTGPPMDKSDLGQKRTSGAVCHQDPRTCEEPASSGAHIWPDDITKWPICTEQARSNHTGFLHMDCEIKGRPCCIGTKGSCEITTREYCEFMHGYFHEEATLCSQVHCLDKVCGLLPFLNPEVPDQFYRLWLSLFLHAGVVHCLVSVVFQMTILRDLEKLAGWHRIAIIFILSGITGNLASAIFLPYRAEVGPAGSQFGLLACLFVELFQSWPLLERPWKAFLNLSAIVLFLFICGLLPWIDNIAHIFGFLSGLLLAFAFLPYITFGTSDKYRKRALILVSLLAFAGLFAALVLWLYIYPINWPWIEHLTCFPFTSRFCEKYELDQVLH
Experiment: affinity purification with mass spectrometry; HA-tagged WT iRhom2 pulled down on anti-HA beads from cells expressing oncogenic KRAS G12V or GFP control; DDM RIPA lysis buffer (1% DDM, 150 mM NaCl, 50 mM Tris-HCl pH 7.5, 0.1% SDS, 0.5% deoxycholate); on-bead digest, LC-MS/MS, NSAF

binding: binds
Substance: ribosomal protein S6 kinase alpha-3 (RSK2), endogenous (from UniProt P51812 1-740) (enzyme)
